# Test results reported in patent US20170369592A1, “NOVEL ANTI-FIBROBLAST ACTIVATION PROTEIN (FAP) ANTIBODIES AND USES DERIVED THEREOF” (Mabimmune Diagnostics AG, priority 2015, published 2017).
# Tested on: FAP
# Assay: Pepscan epitope mapping with overlapping, truncated and alanine-mutated FAP peptides
# Format: binding, human
# Conditions: 188 linear 15-mer peptides, 11 amino acid overlap, antibody 1 μg/ml
row,Molecule,"binding epitope, sequence recognized on FAP"
1,"NI-206.82C2: recombinant human memory B cell-derived monoclonal anti-FAP IgG1 antibody, variable regions in FIG. 1A, FAP inhibitory (antibody, V domains shown) VH: QVQLQQSGPGLVKPSQTLSLTCAISGDSVSSNSVTWNWIRQSPSRGLEWLGRTYYRSKWYNDYAVSVKGRITINPDTSKNQFYLQLKSVTPEDAAVYYCARDSSILYGDYWGQGTLVTVSS VL: QAVLTQPSSLSASPGASASLTCTLPSGINVGTYRIFWFQQKPGSPPQYLLSYKSDSDNHQGSGVPSRFSGSKDASANAGILLISGLQSEDEADYYCMIWHSSAWVFGGGTKLTVL",525-[…]-535
2,"NI-206.59B4: recombinant human-derived monoclonal anti-FAP antibody, variable regions in FIG. 1 (antibody, V domains shown) VH: QVQLVQSGAEVKKPGASVKVSCKTSGYTFTDYYIHWVRQAPGQGLEWMGWINPNRGGTNYAQKFQGRVTMTRDTSIATAYMELSRLRSDDTAVYYCATASLKIAAVGTFDCWGQGTLVTVSS VL: SYELTQPPSVSVSPGQTARITCSGDALSKQYAFWFQQKPGQAPILVIYQDTKRPSGIPGRFSGSSSGTTVTLTISGAQADDEADYYCQSADSSGTYVFGTGTKVTVL",53-SYKTFFP-59
3,"NI-206.22F7: recombinant human-derived monoclonal anti-FAP antibody, variable regions in FIG. 1 (antibody, V domains shown) VH: EVQLVETGGGVVQPGRSLRLSCAASGFSFSTHGMYWVRQPPGKGLEWVAVISYDGSDKKYADSVKGRFTISRDNSKNTVYLEMSSVRAEDTALYYCFCRRDAFDLWGQGTMVTVSS VL: SYVLTQPPSVSVSPGQTARITCSGDALPKKYAYWYQQKSGQAPVLVIYEDTKRPSGIPERFSGSSSGTMATLTISGAQVEDEADYYCYSTDSSGNYWVFGGGTEVTVL",381-[…]-391
4,"NI-206.27E8: recombinant human-derived monoclonal anti-FAP antibody, variable regions in FIG. 1 (antibody, V domains shown) VH: EVQLVESGGGLVEPGGSLRLSCAASGFTFSDAWMNWVRQAPGKGLEWVGRIKTKSDGGTTDYAAPVRGRFSISRDDSKNTLFLEMNSLKTEDTAIYYCFITVIVVSSESPLDHWGQGTLVTVSS VL: SYELTQPPSVSVSPGQTARITCSGDELPKQYAYWYQQKPGQAPVLVIYKDRQRPSGIPERFSGSSSGTTVTLTISGVQAEDEADYYCQSAYSINTYVIFGGGTKLTVL",169-NIYLKQR-175
5,"NI-206.12G4: recombinant human-derived monoclonal anti-FAP antibody, variable regions in FIG. 1 (antibody, V domains shown) VH: EVQLVESGGGLVKPGGSLRLSCAASGFTFSDYYMSWIRQAPGKGLEWISYISSGSSYTNYADSVKGRFTISRDNAKKSVYLEVNGLTVEDTAVYYCARVRYGDREMATIGGFDFWGQGTLVTVSS VL: SYELTQPPSVSVSPGQTARITCSGDALPKQYAYWYQQSPGQAPVLVIYKDSERPSGIPERFSGSSSGTTVTLTISGVQAEDEADYYCQSADSGGTSRIFGGGTKLTVL",481-[…]-495
6,"NI-206.17A6: recombinant human-derived monoclonal anti-FAP antibody, variable regions in FIG. 1 (antibody, V domains shown) VH: QVQLQESGPGLVRSTETLSLTCLVSGDSINSHYWSWLRQSPGRGLEWIGYIYYTGPTNYNPSLKSRVSISLGTSKDQFSLKLSSVTAADTARYYCARNKVFWRGSDFYYYMDVWGKGTTVTVSS VL: EIVLTQSPGTLSLSLGERATLSCRASQSLANNYLAWYQQKPGQAPRLLMYDASTRATGIPDRFSGSGSGTDFTLTISRLEPEDFAVYYCQQFVTSHHMYIFGQGTKVEIK",77-[…]-87

# Same assay, conditions: peptides truncated by one amino acid from N- and C-terminus
row,Molecule,minimum epitope region
1,"NI-206.82C2: recombinant human memory B cell-derived monoclonal anti-FAP IgG1 antibody, variable regions in FIG. 1A, FAP inhibitory (antibody, V domains shown) VH: QVQLQQSGPGLVKPSQTLSLTCAISGDSVSSNSVTWNWIRQSPSRGLEWLGRTYYRSKWYNDYAVSVKGRITINPDTSKNQFYLQLKSVTPEDAAVYYCARDSSILYGDYWGQGTLVTVSS VL: QAVLTQPSSLSASPGASASLTCTLPSGINVGTYRIFWFQQKPGSPPQYLLSYKSDSDNHQGSGVPSRFSGSKDASANAGILLISGLQSEDEADYYCMIWHSSAWVFGGGTKLTVL",528-FDRSK-532
